For 1 molecule, binding results are on record in paper PMC7889885.

No constants are given. Whether binding was seen depends on the method and setting. Binding seen in cells or lysates may run through a third protein. Some results given as binding are weak or reduced against the parent protein; the word gives no strength. Tags and fused reporters may be left off the sequences shown.

This assay concerns the target full-length hNKCC1 tagged with flag and YFP, A735C in the C723S-C724V double mutation (human) (UniProt P55011). Briefly: cross-linking; oxidative cross-linking of single-cysteine mutants in HEK293 cells with 1.5 mM cupric phenanthroline in regular medium for 10-40 min before lysis; blot with T4 antibody.

B1: full-length hNKCC1 tagged with flag and YFP, A735C in the C723S-C724V double mutation (protein, UniProt P55011 1-1212)
chain: MEPRPTAPSSGAPGLAGVGETPSAAALAAARVELPGTAVPSVPEDAAPASRDGGGVRDEGPAAAGDGLGRPLGPTPSQSRFQVDLVSENAGRAAAAAAAAAAAAAAAGAGAGAKQTPADGEASGESEPAKGSEEAKGRFRVNFVDPAASSSAEDSLSDAAGVGVDGPNVSFQNGGDTVLSEGSSLHSGGGGGSGHHQHYYYDTHTNTYYLRTFGHNTMDAVPRIDHYRHTAAQLGEKLLRPSLAELHDELEKEPFEDGFANGEESTPTRDAVVTYTAESKGVVKFGWIKGVLVRCMLNIWGVMLFIRLSWIVGQAGIGLSVLVIMMATVVTTITGLSTSAIATNGFVRGGGAYYLISRSLGPEFGGAIGLIFAFANAVAVAMYVVGFAETVVELLKEHSILMIDEINDIRIIGAITVVILLGISVAGMEWEAKAQIVLLVILLLAIGDFVIGTFIPLESKKPKGFFGYKSEIFNENFGPDFREEETFFSVFAIFFPAATGILAGANISGDLADPQSAIPKGTLLAILITTLVYVGIAVSVGSCVVRDATGNVNDTIVTELTNCTSAACKLNFDFSSCESSPCSYGLMNNFQVMSMVSGFTPLISAGIFSATLSSALASLVSAPKIFQALCKDNIYPAFQMFAKGYGKNNEPLRGYILTFLIALGFILIAELNVIAPIISNFFLASYALINFSVFHASLAKSPGWRPAFKYYNMWISLLGAILSVIVMFVINWWACLLTYVIVLGLYIYVTYKKPDVNWGSSTQALTYLNALQHSIRLSGVEDHVKNFRPQCLVMTGAPNSRPALLHLVHDFTKNVGLMICGHVHMGPRRQAMKEMSIDQAKYQRWLIKNKMKAFYAPVHADDLREGAQYLMQAAGLGRMKPNTLVLGFKKDWLQADMRDVDMYINLFHDAFDIQYGVVVIRLKEGLDISHLQGQEELLSSQEKSPGTKDVVVSVEYSKKSDLDTSKPLSEKPITHKVEEEDGKTATQPLLKKESKGPIVPLNVADQKLLEASTQFQKKQGKNTIDVWWLFDDGGLTLLIPYLLTTKKKWKDCKIRVFIGGKINRIDHDRRAMATLLSKFRIDFSDIMVLGDINTKPKKENIIAFEEIIEPYRLHEDDKEQDIADKMKEDEPWRITDNELELYKTKTYRQIRLNELLKEHSSTANIIVMSLPVARKGAVSSALYMAWLEALSKDLPPILLVRGNHQSVLTFYS
Regarding B1, the binding entry is “binds”.
